# In the supplement of paper PMC8497498:
# This is one part of the list. The data scatter; read single values as rough.
# Key:
# Settings in all cases: 10 µM
# [1] = system: Plasmodium vivax liver stage (primary human hepatocyte culture); experiment: hypnozoite quantity inhibition (% inhibition); higher = more active against hypnozoites
# [2] = system: Plasmodium vivax liver stage (primary human hepatocyte culture); experiment: schizont net growth area inhibition (% inhibition); higher = more active against liver schizonts
# [3] = system: primary human hepatocytes; experiment: hepatic nuclei reduction relative to DMSO (100 - % of negative control); higher = more toxic to hepatocytes
# [4] = assay mode: Prophylactic (treated before or shortly after infection), fixed day 6 post-infection
# [5] = assay mode: Radical Cure (treated from day 5 post-infection for 3 days), fixed day 8 post-infection
Compound,"hypnozoite quantity inhibition [1, 4]","hypnozoite quantity inhibition [1, 5]","schizont net growth area inhibition [2, 4]","schizont net growth area inhibition [2, 5]","hepatic nuclei reduction [3, 4] [%]","hepatic nuclei reduction [3, 5] [%]"
Cn1c(=O)c2c(S(C)(=O)=O)snc2n(C)c1=O,-3,-106,-38.6,-1.8,-7,11
COC1OC2OC3(C)CCC4C(C)CCC(C1C)C24OO3 (centres undefined),-42,18,70.8,87,-12,-7
CCCCNCC(O)(c1ccc(Cl)cc1)c1ccc(Cl)cc1,0.9,33.6,1.1,-17.1,-5,-2
Cc1sc2ncnc(Sc3nc4ccccc4[nH]3)c2c1C,94.6,81.7,103,86.6,-9,-2
